Measurements reported in patent publication US20050287114A1, “Water-soluble polymeric bone-targeting drug delivery system” (University of Utah Research Foundation, priority 2003, published 2005).

Experiment: in vitro bone-targeting capacity: binding of conjugates to hydroxyapatite
Details: conjugate 1 mg/mL in phosphate buffered saline, 5 mg HA, 1 h at R.T., UV absorbance of supernatant
Protocol: All conjugates in Table 1 were screened in vitro for their bone-targeting capacity by the following procedure. Conjugates were dissolved in phosphate buffered saline to give a concentration of 1 mg/mL. The conjugate solution (100 μL) and 100 μL of the same buffer were incubated with 5 mg of hydroxyapatite (HA, Bio-Gel HTP, DNA grade; BIO-RAD, Hercules, Calif.) for 1 h at R.T. The solution was then centrifuged. The UV absorbance at certain wavelengths (FITC, 490 nm; 9-Gly-ATC, 450 nm) of the supernatant was monitored with an ELISA plate reader. Background correction was applied. The data presented is the average of three samples. The binding efficiency is expressed as the percentage of conjugates bound to HA (FIG. 4).

binding to HA (percentage of conjugates bound to HA): slightly lower values
SMILES: NCCCC(O)(P(=O)(O)O)P(=O)(O)O [Alendronate, reference compound]
